Measured values: PMC5386674

By UniProt entry, the sequences of proteins in these tests, tags left out. Where a name states a change or a piece, a line headed by the entry shows the natural chain unless it says otherwise.
UniProt P97471: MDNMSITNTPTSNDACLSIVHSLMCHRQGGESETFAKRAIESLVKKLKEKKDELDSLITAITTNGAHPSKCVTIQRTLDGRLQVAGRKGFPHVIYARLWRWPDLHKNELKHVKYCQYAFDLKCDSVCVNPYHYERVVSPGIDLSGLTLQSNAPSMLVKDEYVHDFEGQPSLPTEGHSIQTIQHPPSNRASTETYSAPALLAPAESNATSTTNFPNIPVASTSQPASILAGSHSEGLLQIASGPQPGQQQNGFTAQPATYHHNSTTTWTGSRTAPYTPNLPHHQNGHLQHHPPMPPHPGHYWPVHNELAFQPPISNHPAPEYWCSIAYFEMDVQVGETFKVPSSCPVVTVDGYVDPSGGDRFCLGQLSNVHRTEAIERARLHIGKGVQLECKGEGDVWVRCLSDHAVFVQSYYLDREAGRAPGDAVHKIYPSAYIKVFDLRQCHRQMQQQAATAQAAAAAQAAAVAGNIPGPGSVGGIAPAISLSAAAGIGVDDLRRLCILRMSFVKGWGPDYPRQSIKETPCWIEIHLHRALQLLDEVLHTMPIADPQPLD

Experiments:
[1] = target: T1, murine Hyal-2, membrane-anchored target (pMyr) (murine) (UniProt O35632); experiment: two-hybrid; Ras rescue-based cytoplasmic yeast two-hybrid (CytoTrap, Stratagene); Sos-tagged bait in the cytoplasm, myristoylated target on the membrane; growth of cdc25H yeast at 37°C on selective galactose plates
T1 sequence: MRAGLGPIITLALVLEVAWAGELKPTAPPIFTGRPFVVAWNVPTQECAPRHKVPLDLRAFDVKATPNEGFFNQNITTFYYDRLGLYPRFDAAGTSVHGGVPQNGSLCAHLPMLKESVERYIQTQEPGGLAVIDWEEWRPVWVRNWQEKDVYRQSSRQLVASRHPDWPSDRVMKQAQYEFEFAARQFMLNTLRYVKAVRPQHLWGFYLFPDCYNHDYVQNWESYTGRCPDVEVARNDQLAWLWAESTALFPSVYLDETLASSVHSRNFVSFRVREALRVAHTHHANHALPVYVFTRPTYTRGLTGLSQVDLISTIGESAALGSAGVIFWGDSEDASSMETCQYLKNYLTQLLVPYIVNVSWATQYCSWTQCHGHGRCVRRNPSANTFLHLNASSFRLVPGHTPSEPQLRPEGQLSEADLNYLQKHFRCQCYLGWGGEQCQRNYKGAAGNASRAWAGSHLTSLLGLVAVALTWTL

[2] = target: T2, murine WWOX, Sos-tagged bait (pSos) (murine) (UniProt Q91WL8); experiment: two-hybrid; competitive binding in the Ras rescue yeast two-hybrid: membrane-anchored Hyal-2 (target), constant amount of WWOX (bait), various amounts of Smad4 (competitor) in the cytoplasm; % colony growth at 37°C over 22°C
T2 sequence: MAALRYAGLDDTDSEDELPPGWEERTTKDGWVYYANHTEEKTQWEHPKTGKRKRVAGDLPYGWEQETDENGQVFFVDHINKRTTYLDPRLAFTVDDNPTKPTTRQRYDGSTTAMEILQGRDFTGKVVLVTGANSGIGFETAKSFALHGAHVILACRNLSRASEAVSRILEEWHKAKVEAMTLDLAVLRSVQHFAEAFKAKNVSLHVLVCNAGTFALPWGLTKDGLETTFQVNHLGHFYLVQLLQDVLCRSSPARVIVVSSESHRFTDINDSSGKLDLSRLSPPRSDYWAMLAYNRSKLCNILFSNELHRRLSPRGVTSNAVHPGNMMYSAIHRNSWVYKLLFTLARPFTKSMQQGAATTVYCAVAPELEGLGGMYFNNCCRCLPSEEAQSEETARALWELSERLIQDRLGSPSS

[3] = target: ECFP-Smad4 (not stated (murine Smad4 cDNA cloned)) (UniProt P97471); experiment: FRET or BRET; time-lapse tri-molecular FRET microscopy in DU145 cells transiently expressing ECFP-, EGFP- and DsRed-monomer-tagged proteins, stimulated with HA (25 μg/ml); FRETc

- binding [1]: binds
Molecule: WWOXww (the first WW domain of murine WWOX), Sos-tagged bait (domain or fragment)

- binding [2]: binds
Molecule: Smad4 (competitor, expressed in the yeast cytoplasm) (from UniProt P97471)

- binding [3]: binds
B1: EGFP-WWOX (murine) (protein, UniProt Q91WL8 1-414)
chain: T2 sequence

Results are given in words; binding and its absence hold for the method and conditions named. Binding can be weak; no strength is given. For part of these data: Where a sequence is shown, tags or fusion partners need not be part of it. For part of these data: In cells and extracts the contact can be indirect. Each block holds one molecule with its values, some of them ahead of it.
